From publication doi:10.1101/2023.09.04.556207
No constants are given. Whether binding was seen depends on the method and setting. Binding seen in cells or lysates may run through a third protein. Tags and fused reporters may be left off the sequences shown.

Amino acid sequences for entries named in this document (tags omitted). Residues count along the entry.
UniProt P10809, residues 27-573: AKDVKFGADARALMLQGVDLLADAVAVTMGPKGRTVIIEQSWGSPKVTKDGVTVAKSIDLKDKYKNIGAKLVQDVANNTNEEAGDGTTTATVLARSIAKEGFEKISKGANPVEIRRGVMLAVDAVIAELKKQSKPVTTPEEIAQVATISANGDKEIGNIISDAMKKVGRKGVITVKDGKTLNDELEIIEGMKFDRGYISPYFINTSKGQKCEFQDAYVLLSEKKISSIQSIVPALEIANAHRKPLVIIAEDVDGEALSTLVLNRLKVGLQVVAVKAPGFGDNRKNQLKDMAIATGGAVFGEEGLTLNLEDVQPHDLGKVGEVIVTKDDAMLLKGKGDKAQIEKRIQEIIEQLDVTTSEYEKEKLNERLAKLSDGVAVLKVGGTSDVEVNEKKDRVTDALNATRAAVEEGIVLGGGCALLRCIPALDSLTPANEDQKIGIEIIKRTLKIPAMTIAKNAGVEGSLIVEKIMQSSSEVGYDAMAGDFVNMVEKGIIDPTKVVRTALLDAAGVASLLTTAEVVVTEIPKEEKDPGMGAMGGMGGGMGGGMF

Target: T1, SLP2-MYC (human) (UniProt Q9UJZ1)
T1 sequence: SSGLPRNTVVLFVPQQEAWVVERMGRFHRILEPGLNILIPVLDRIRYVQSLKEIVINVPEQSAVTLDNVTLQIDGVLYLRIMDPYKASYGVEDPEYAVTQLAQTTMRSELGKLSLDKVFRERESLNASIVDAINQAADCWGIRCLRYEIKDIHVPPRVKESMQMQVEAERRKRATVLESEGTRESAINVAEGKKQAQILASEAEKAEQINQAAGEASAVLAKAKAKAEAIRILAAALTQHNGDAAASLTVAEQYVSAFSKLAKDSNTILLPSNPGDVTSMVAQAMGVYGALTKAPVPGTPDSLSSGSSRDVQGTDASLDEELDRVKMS
Assay: co-IP

With HSP60 (from UniProt P10809 27-573) as the substance, how does the binding read?
Its binding is “no binding”.
